# Experimental data taken from PubChem BioAssay AID901 (National Center for Advancing Translational Sciences (NCATS), 2007).
# Some of the results follow. Further columns of the screen follow, without active or inactive calls. Most of these compounds were active or inconclusive in the main read-out, so they are no random draw. Potencies come from curve fits of mixed quality, noted in brackets.
# Experiment: qHTS Assay for Identifying the Cell-Membrane Permeable IMPase Inhibitors
# Settings: CHO-M1 cells, IP1 accumulation, HTRF TR-FRET ratio; measured here: donor channel 620 nm AC50
row,SMILES,AC50
1,CCOC(=O)c1c(CN2CCN(CCO)CC2)n(C)c2cc(Br)c(OC)cc12,"31.6 µM [falling, single point]"
2,c1cncc(-c2nc3ccccc3o2)c1,"15.8 µM [falling, single point]"
3,Clc1ccc2noc(-c3ccccc3)c2c1,"31.6 µM [falling, single point]"
4,Cc1ccc(Cl)cc1N1CCN(CCNC(=O)Nc2ccccc2Cl)CC1,"11.2 µM [rising, partial curve, poor fit]"
5,Cc1nonc1NC(=O)CSc1ccc(-c2ccccc2)nn1,"3.16 µM [rising, full curve]"
6,O=C1/C(=C/c2ccc([N+](=O)[O-])cc2)C=C(c2ccccc2)N1c1ccccc1,"3.16 µM [rising, full curve, poor fit]"
7,O=c1oc2cc(OCc3ccc(F)cc3F)ccc2cc1-c1ccccn1,"25.1 µM [rising, single point]"
8,O=C(COc1ccc2ccccc2c1)NCCNC(=O)COc1ccc2ccccc2c1,"31.6 µM [rising, single point]"
9,Nc1nc(-c2ccccc2Br)cs1,"0.0126 µM [falling, full curve]"
10,COc1ccc(-c2nc(CNS(=O)(=O)c3ccc(OC)c(OC)c3)cs2)cc1,"0.708 µM [falling, full curve, poor fit]"
11,Cc1cc(C)cc(C(=O)Nc2ccc(-c3nc4ncccc4o3)cc2)c1,"10 µM [rising, partial curve, poor fit]"
12,Clc1ccccc1-c1cc(COc2ccc3ccccc3c2)no1,"0.398 µM [falling, full curve, poor fit]"
13,Cc1ccc(NC(=O)c2cnn3c(C(F)F)cc(-c4ccccc4)nc23)c(C)c1,"11.2 µM [falling, partial curve, poor fit]"
14,CCc1ccc(N=C2NC(=O)CC(C(=O)Nc3ccc(OC)cc3)S2)cc1 (stereo not drawn),"0.158 µM [falling, full curve, poor fit]"
15,CCN1CCCC1CNC(=O)CSc1cc(=O)n(C)c2cc(Cl)ccc12 (stereo not drawn),"10 µM [rising, partial curve]"
16,O=S(=O)(c1ccccc1)N1CCN(c2ncnc3sc(-c4ccccc4)cc23)CC1,"31.6 µM [rising, single point]"
17,O=C(NCCN1CCc2ccccc2C1)Nc1ccc(F)cc1,"35.5 µM [falling, partial curve, poor fit]"
18,CCn1c(SCc2ccc(C(=O)Nc3cc(C)cc(C)c3)cc2)nnc1-c1ccncc1,"0.158 µM [falling, full curve, poor fit]"

# Quoted from the listing:
# In AC50, Cc1cc(C)cc(C(=O)Nc2ccc(-c3nc4ncccc4o3)cc2)c1 shows 10 µM [rising, partial curve, poor fit]
# In AC50, Cc1ccc(NC(=O)c2cnn3c(C(F)F)cc(-c4ccccc4)nc23)c(C)c1 shows 11.2 µM [falling, partial curve, poor fit]
